Changes are numbered by the printed parent chain. Numbers in names are those of the source. No constants are given. Whether binding was seen depends on the method and setting. Binding calls can cover weak binding; strength is not graded here. For some of these results: In cells and extracts the contact can be indirect.
Key:
Cep63 (219–541) (human) = experiment: SAXS; solution scattering of purified complexes, concentration series extrapolated to infinite dilution; WT complex at 13 and 25 µM; ab initio DAMMIN envelopes; both purified
[1] = target: His-Cep63 (424–541) (human); experiment: as above
[2] = target: His-Cep63 (424–541) (human); experiment: SEC; analytical SEC of the co-purified Cep63•Cep152 complexes; pH 7.5 (Fig. 2b); pH of the WT/∆23/2D comparison (Fig. 3a) not stated; both purified
[3] = target: His-Cep63 (424–541) (human); experiment: iSCAMS (mass photometry); pH 5.5 sample diluted to 200 nM (methods: 100 nM) and left equilibrated at 4 °C; both purified
[4] = target: His-Cep63 (440–541) (human); experiment: SAXS; solution scattering of purified complexes, concentration series extrapolated to infinite dilution; WT complex at 13 and 25 µM; ab initio DAMMIN envelopes; both purified
[5] = target: His-Cep63 (440–541) (human); experiment: AUC; sedimentation velocity of His-Cep63 (440–541)•Cep152 (1205–1272), 50,000 rpm, 20 °C, 100 mM NaCl, 20 mM Tris pH 7.5, 0.5 mM TCEP; both purified
[6] = target: His-Cep63 (424–541) (human); experiment: AUC; sedimentation velocity of His-Cep63 (424–541)•Cep152 (1205–1272), 50,000 rpm, 4 °C, 150 mM NaCl, 20 mM Tris pH 7.5, 10 mM 2-mercaptoethanol, 0.5 mM TCEP, 5% glycerol; various loading concentrations; both purified
[7] = target: His-Cep63 (424–541) (human); experiment: AUC; sedimentation velocity of His-Cep63 (424–541)•Cep152 (1205–1295) 2D, 50,000 rpm, 4 °C, 150 mM NaCl, 20 mM Tris pH 7.5, 0.5 mM TCEP, 5% glycerol; various loading concentrations; both purified
Cep63 (220–541) (human) = experiment: SAXS; solution scattering of purified complexes, concentration series extrapolated to infinite dilution; WT complex at 13 and 25 µM; ab initio DAMMIN envelopes; both purified

Measured: binding

B1: Cep152 (1205–1295) (domain or fragment, UniProt O94986-3 1205-1295)
chain: GALEELRGQYIKAVKKIKCDMLRYIQESKERAAEMVKAEVLRERQETARKMRKYYLICLQQILQDDGKEGAEKKIMNAASKLATMAKLLET
binds: Cep63 (219–541) (human) | [1] | [2] | [3]

B2: Cep152 (1205–1272) (domain or fragment, UniProt O94986-3 1205-1272)
chain: GALEELRGQYIKAVKKIKCDMLRYIQESKERAAEMVKAEVLRERQETARKMRKYYLICLQQILQDDGK
binds: [4] | [1] | [2] | [5] | [6]

B3: Cep152 (1205–1295) I1279D L1286D (domain or fragment, UniProt O94986-3 1205-1295)
chain: B1 chain with I75D, L82D
binds: [7] | [1] | [2]

B4: Cep152 (1140–1295) (domain or fragment, UniProt O94986-3 1140-1295)
chain: GHHAQPLALQATEAEAEENNKVVEELIEENNDMKNKLEELQTLCKTPPRSLSAGAIENACLPCSGGALEELRGQYIKAVKKIKCDMLRYIQESKERAAEMVKAEVLRERQETARKMRKYYLICLQQILQDDGKEGAEKKIMNAASKLATMAKLLET
binds: Cep63 (220–541) (human)

From paper PMC10336005, “Architectural basis for cylindrical self-assembly governing Plk4-mediated centriole duplication in human cells” (Communications Biology, 2023)
